Reference: PubChem BioAssay AID602313 (National Center for Advancing Translational Sciences (NCATS), 2012)
Out of some 390,000 compounds screened, about 760 (0.19%) were called active. This list was built around the results that the source calls inconclusive (neither active nor inactive); the mix of calls is not that of the screen. The call rests on the fitted dose curve; in most records, active means well fitted inhibition curve with a large enough effect; inconclusive means small, poorly fitted or top-dose-only effect; inactive means flat fitted curve, though single readings scatter. A potency beside an inconclusive call is a rough fit, not a confirmed value.

Test: qHTS for Inhibitors of Vif-A3F Interactions: qHTS; further: nearly all actives have a fitted effect of over 65% in size
Settings: HeLa A3F-eYFP + Vif (tagged APOBEC3F with the HIV-1 protein that degrades it), YFP fluorescence increase; series mostly up to 46.1 µM
Summary of the method: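 HeLa cells stably expressing Vif plus C-terminally eYFP-tagged A3F were seeded, incubated overnight at 37 deg C, dosed with compound, incubated overnight again at 37 deg C. Yellow fluorescence (Ex 488/Em 500-530) reported blocked Vif-mediated A3F-eYFP degradation.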
Potency means the concentration at half of the fitted maximal effect.

SMILES	Potency
CCC(=O)Nc1nc(C)c(-c2csc(Nc3ccccn3)n2)s1	inactive
O=C(O)c1ccc(N/N=C/c2ccc(-c3ccc(Cl)cc3Cl)o2)cc1	inconclusive: 35.5 µM [inhibitor, single point]
CCCCN1CN(Cc2ccccc2)CNC1=S	inconclusive: 22.4 µM [inhibitor, single point]
CCCCOC(=O)C(C#N)c1nc2ccccc2nc1N1CCN(Cc2ccc3c(c2)OCO3)CC1 (stereo unspecified)	inconclusive: 17.8 µM [inhibitor, partial curve, poor fit]
COc1ccc2c(c1)S/C(=C\C(=O)c1ccncc1)N2C	inconclusive: 35.5 µM [inhibitor, single point]
C=C1SC(Nc2c(C)cccc2C)=NC12CCCCC2	inconclusive: 35.5 µM [inhibitor, single point]
CC1Cc2ccccc2N1S(=O)(=O)c1cccc(C(=O)NCC(c2ccco2)N2CCCC2)c1 (stereo unspecified)	inconclusive: 3.16 µM [inhibitor, single point]
O=C1/C(=C/c2cccnc2)SC(=S)N1NS(=O)(=O)c1ccccc1	inconclusive: 7.94 µM [inhibitor, partial curve, poor fit]
O=[N+]([O-])c1ccccc1S(=O)(=O)Nc1ccc(S(=O)(=O)Nc2nccs2)cc1	inconclusive: 35.5 µM [inhibitor, single point]
CCOc1cc(C(=O)Nc2ccc3nc(N4CCN(C)CC4)cc(C)c3c2)cc(OCC)c1OCC	inconclusive: 35.5 µM [inhibitor, single point]
CCOc1ccc(C(=O)C(C)OC(=O)c2nc(Cl)ccc2Cl)cc1 (stereo unspecified)	inconclusive: 2.82 µM [inhibitor, partial curve, poor fit]
COC(=O)c1cc(C)nc(Sc2ccccc2N)n1	inactive
COc1cccc(CN2CCNC(=O)C2CC(=O)N(C)C2CCOCC2)c1OC (stereo unspecified)	inconclusive: 0.562 µM [inhibitor, full curve, poor fit]
C/C(=N\Nc1nc(-c2ccccn2)nc2ccccc12)c1ccc(F)cc1	inconclusive: 2.51 µM [inhibitor, full curve, poor fit]
COc1cc(-c2nc(-c3ccccc3)c(-c3ccc(Br)cc3)[nH]2)cc(OC)c1O	inactive
Cc1ccc(NC(=S)NC(=O)c2ccc(F)cc2)cc1S(=O)(=O)Nc1cccc(Cl)c1	inconclusive: 10 µM [inhibitor, partial curve]
Cc1cccc(C(=O)O/N=C(\N)Cc2cccc3ccccc23)c1	inconclusive: 15.8 µM [inhibitor, single point]
COc1ccc(Nc2nc3c(S(=O)(=O)c4ccc(C)cc4)nnn3c3ccsc23)cc1Cl	inconclusive: 5.62 µM [inhibitor, single point]
COc1cccc(NC2=Nc3cccc4cccc2c34)c1	inactive
Cc1cccc2cc3c(N)c(C(=O)N4CCc5ccccc54)sc3nc12	active: 4.47 µM
COc1ccc(-c2ccc(/C=C3/C(=N)N4C(C)=CSC4=NC3=O)o2)c([N+](=O)[O-])c1	inconclusive: 11.2 µM [inhibitor, partial curve, poor fit]
CCc1ccc(-c2cc(C)no2)cc1S(=O)(=O)NCc1ccc(OC)cc1	inactive

Ordered by count of non-hydrogen atoms (rising): part of the list above
SMILES	Potency
COc1ccc2c(c1)S/C(=C\C(=O)c1ccncc1)N2C	inconclusive: 35.5 µM [inhibitor, single point]
Cc1cccc(C(=O)O/N=C(\N)Cc2cccc3ccccc23)c1	inconclusive: 15.8 µM [inhibitor, single point]
Cc1cccc2cc3c(N)c(C(=O)N4CCc5ccccc54)sc3nc12	active: 4.47 µM
COc1cccc(CN2CCNC(=O)C2CC(=O)N(C)C2CCOCC2)c1OC (stereo unspecified)	inconclusive: 0.562 µM [inhibitor, full curve, poor fit]

More compounds

SMILES	Potency
C=CCOc1ccccc1C(=O)/C=C1/C(=O)Nc2ccccc21	inactive
O=C(COC(=O)C1CC1)NCc1ccccc1	inconclusive: 6.31 µM [inhibitor, full curve, poor fit]
O=C(NC(=S)N1CCc2ccccc21)c1ccccc1	inconclusive: 3.16 µM [inhibitor, single point]
Cc1ccccc1C1C(C#N)=C2N=C(N)c3c(sc4c3CCCCC4)N2C2=C1C(=O)CCC2 (stereo unspecified)	inconclusive: 35.5 µM [inhibitor, single point]
C/C(=N\NC(=S)NC1CCCCC1)c1c(F)cccc1F	inconclusive: 7.94 µM [inhibitor, partial curve, poor fit]
OC(COc1ccc2c(c1)CCC2)CN1CCN(c2cccc(Cl)c2)CC1 (stereo unspecified)	inconclusive: 35.5 µM [inhibitor, single point]
COc1ccccc1OCC(=O)N/N=C/C=C/c1ccc([N+](=O)[O-])o1	active: 10 µM
Cc1ccc(/C=C2\CCC3=C2OC(N)=C(C#N)C3c2ccc(C)cc2)cc1 (stereo unspecified)	inconclusive: 12.6 µM [inhibitor, partial curve, poor fit]
Cc1ccc(-c2nc3ccccc3[nH]2)cc1NC(=O)COc1ccc(Cl)cc1Cl	inconclusive: 5.62 µM [inhibitor, single point]
COc1cc(C(=O)OCC(=O)NC23CC4CC(CC(C4)C2)C3)cc(OC)c1OC	inconclusive: 2.24 µM [inhibitor, full curve, poor fit]
O=C1CN(c2nc(-c3ccccc3)c3cc(Cl)ccc3n2)c2ccccc2N1	inconclusive: 7.08 µM [inhibitor, partial curve, poor fit]
C=CCOc1ccc(CNc2ccc3[nH]c(=O)[nH]c3c2)cc1OC	inconclusive: 35.5 µM [inhibitor, single point]
COc1ccc(-n2c(O)c(/C=N/NS(=O)(=O)c3cccc([N+](=O)[O-])c3)c3ccccc3c2=O)cc1OC	inconclusive: 8.91 µM [inhibitor, partial curve, poor fit]
Clc1ccc(SCc2cc(N3CCOCC3)nc(-c3ccccn3)n2)cc1	inconclusive: 3.55 µM [inhibitor, single point]
CN(CC(=O)Nc1ccccc1Cl)C(=O)CSC(=S)N1CCCC1	inconclusive: 5.62 µM [inhibitor, single point]
Cc1ccccc1-c1cnc2c(c1)C(=O)N([C@@H](C)CO)C[C@@H](C)[C@H](CN(C)Cc1ccccc1F)O2	inactive
CCSc1nnc(NC(=O)Nc2cccc(C)c2)s1	inactive
O=[N+]([O-])c1ccc(Nc2ccccn2)c([N+](=O)[O-])c1	inactive
C/C(=N\NC(=S)NC1CCCCC1)c1cccs1	inconclusive: 5.62 µM [inhibitor, single point]
Nc1cc(N)nc(SCC(=O)NCc2ccco2)n1	inconclusive: 6.31 µM [inhibitor, single point]
Cc1cc(/C=N/NC(N)=S)c(C)n1-c1cccc(Cl)c1	inconclusive: 20 µM [inhibitor, partial curve, poor fit]
COc1ccc(Br)c(C(=O)Nc2ccc(F)cc2)c1	inconclusive: 3.16 µM [inhibitor, partial curve, poor fit]

SMILES	Potency
Cc1noc(C)c1C(=O)OCC(=O)Nc1ccccc1SCC#N	active: 22.4 µM
Cc1cccc(-c2nc3c4ccccc4n(CC(=O)Nc4cccc(F)c4)c(=O)n3n2)c1	inconclusive: 35.5 µM [inhibitor, single point]
Cc1ccc(N2C(=O)C(F)(F)C2c2ccccc2)cc1 (stereo unspecified)	inactive
Cc1cccc(N=C2NC(=O)S/C2=C\c2ccco2)c1	inactive
Cc1ccc(NC(=O)c2c(C)nc3sc(C(=O)NC4CCCC4)c(N)c3c2-c2ccco2)c(C)c1	active: 2.82 µM
CCOc1ccc(/C=N/NC(=S)NC2CC3CCC2C3)cc1 (stereo unspecified)	inconclusive: 11.2 µM [inhibitor, partial curve, poor fit]
CCN(CC)CCN(C(=O)C1CCCCC1)c1nc2cc3c(cc2s1)OCO3	inconclusive: 12.6 µM [inhibitor, partial curve, poor fit]
CCCCCC(=O)NC(=S)NC1C2CC3CC(C2)CC1C3 (stereo unspecified)	inconclusive: 10 µM [inhibitor, partial curve, poor fit]
CC1CCc2[nH]c3ccc(C(=O)NCC4CCCO4)cc3c2C1 (stereo unspecified)	inconclusive: 4.47 µM [inhibitor, single point]
CC1CC/C(=C\c2ccc3c(c2)OCO3)C(=O)/C1=C/c1ccc2c(c1)OCO2 (stereo unspecified)	inconclusive: 35.5 µM [inhibitor, single point]
O=C1NC(=O)/C(=C\c2ccc(OCc3cnc(Cl)s3)cc2)S1	inactive
NC(=O)c1ccsc1NC(=O)COC(=O)CCOc1ccccc1	inconclusive: 12.6 µM [inhibitor, partial curve, poor fit]
COc1ccc(-c2n[nH]c(=S)n2-c2ccc(C)cc2C)cc1	inconclusive: 22.4 µM [inhibitor, single point]
COc1ccccc1N1N=C(C(=O)c2ccccc2)C2C(=O)N(c3ccc(Br)cc3)C(=O)C21 (stereo unspecified)	inconclusive: 35.5 µM [inhibitor, single point]
CCOC(=O)c1ccc(-n2c(=O)[nH]c3ccccc3c2=O)cc1	inactive
O=C(NC(=S)Nc1ccccc1[N+](=O)[O-])c1cncc(Br)c1	inconclusive: 35.5 µM [inhibitor, single point]
CCCCN(C)C(=O)Cn1ncc2c3ccccc3n(CCC)c2c1=O	inconclusive: 3.55 µM [inhibitor, single point]
S=C1NC(c2ccccc2)=CC(c2ccccc2)N1 (stereo unspecified)	inconclusive: 25.1 µM [inhibitor, partial curve, poor fit]
CCc1ccc(NC(=O)/C(C#N)=C/c2ccncc2)cc1	inactive
O=c1c(-c2ccco2)[n+]([O-])c2ccccc2n1OCc1c(F)cccc1F	inconclusive: 17.8 µM [inhibitor, partial curve, poor fit]
O=C(CN1CCCC1)Nc1c(Cl)cccc1Cl	inconclusive: 35.5 µM [inhibitor, partial curve, poor fit]
O=C(C(=O)N1CCOCC1)c1c[nH]c2ccccc12	inactive
